Measurements published in PubChem BioAssay AID651768 (National Center for Advancing Translational Sciences (NCATS), 2012).
Hit rate of the full screen: of about 360,000 compounds, about 1,700 (0.47%) were called active. The shares of active, inactive and inconclusive entries below differ from those in the screen. Calls come from the whole dose curve; as a rule, active = well fitted inhibition curve with a large enough effect; inconclusive = small, poorly fitted or top-dose-only effect; inactive = no such curve, though single readings can be large or run the other way. Potencies beside an inconclusive call are fits to weak or partial responses and may not hold up.

Protein sequences, listed by entry. Tags and fused reporters are not part of them.
UniProt Q14191, whole entry, looked up: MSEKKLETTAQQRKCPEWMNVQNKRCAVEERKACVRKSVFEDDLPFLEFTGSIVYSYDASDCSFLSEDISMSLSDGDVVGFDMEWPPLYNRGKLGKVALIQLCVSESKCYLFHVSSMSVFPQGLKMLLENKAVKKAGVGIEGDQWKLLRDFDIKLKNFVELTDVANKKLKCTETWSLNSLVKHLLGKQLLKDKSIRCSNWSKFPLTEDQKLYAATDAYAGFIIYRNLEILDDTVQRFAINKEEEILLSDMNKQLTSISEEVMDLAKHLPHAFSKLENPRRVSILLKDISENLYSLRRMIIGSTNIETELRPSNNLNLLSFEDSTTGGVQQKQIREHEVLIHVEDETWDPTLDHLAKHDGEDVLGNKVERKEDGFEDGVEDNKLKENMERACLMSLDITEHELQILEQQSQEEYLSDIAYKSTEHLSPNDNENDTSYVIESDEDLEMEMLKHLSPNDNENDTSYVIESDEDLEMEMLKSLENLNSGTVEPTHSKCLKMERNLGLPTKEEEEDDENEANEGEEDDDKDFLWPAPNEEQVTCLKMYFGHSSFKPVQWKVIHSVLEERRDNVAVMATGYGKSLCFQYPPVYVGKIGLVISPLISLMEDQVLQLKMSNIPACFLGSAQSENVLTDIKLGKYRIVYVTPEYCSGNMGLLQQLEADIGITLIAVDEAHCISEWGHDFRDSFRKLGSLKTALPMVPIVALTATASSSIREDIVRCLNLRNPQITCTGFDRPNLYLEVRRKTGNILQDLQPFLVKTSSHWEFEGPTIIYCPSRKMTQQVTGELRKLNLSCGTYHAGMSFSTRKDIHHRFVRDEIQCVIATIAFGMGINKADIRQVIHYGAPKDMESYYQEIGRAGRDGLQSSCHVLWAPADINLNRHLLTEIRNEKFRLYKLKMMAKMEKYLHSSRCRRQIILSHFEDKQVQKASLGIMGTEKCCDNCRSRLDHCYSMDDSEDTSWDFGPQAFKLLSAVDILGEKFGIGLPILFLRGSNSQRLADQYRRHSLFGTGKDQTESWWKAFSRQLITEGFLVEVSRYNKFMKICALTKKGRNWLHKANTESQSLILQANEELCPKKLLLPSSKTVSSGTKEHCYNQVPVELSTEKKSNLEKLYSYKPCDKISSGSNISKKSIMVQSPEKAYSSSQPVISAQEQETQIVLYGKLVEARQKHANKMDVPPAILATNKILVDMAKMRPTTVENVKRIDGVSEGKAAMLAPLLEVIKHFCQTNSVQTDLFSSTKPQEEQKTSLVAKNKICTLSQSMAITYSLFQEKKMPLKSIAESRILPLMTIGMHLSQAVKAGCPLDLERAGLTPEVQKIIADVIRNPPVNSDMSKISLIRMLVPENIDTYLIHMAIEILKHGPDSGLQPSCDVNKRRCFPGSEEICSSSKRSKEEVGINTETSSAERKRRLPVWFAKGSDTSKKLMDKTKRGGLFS

What follows are compounds tested against Bifunctional 3'-5' exonuclease/ATP-dependent helicase WRN (Homo sapiens) (UniProt Q14191) (assay: qHTS for Inhibitors of WRN Helicase). Details: WRN helicase unwinding, fluorescent forked duplex, kinetic; series mostly up to 114 µM.
Procedure, shortened: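 Primary qHTS, 1536-well format. 20 nM WRN + compound, 15 min RT; start with 100 nM forked fluorophore/quencher duplex, 2 mM ATP (final); kinetic read ex 525/em 598 nm.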
Note: nearly all actives have a fitted effect of over 55% in size.
Potency is the fitted concentration of half-maximal effect.

Row | Compound | Potency
1 | Cc1ccccc1CNC(=O)C1CCC(=O)N(CC2CCCCC2)C1 (configuration not stated) | inactive
2 | Cc1ccc(N2C(=O)C3C4C=CC(CC4)C3C2=O)cc1[N+](=O)[O-] (configuration not stated) | inactive
3 | Cc1ccsc1C(=O)N1CCN(c2ncc(C(F)(F)F)cc2Cl)CC1 | inconclusive: 31.6 µM [inhibitor, full curve]
4 | O=C(Nc1cc(SCC(O)CO)cc([N+](=O)[O-])c1)c1ccc(-n2cnnn2)cc1 (configuration not stated) | inconclusive: 25.1 µM [inhibitor, full curve]
5 | COc1cc(C2SCC(=O)N2Cc2ccccc2)ccc1O (configuration not stated) | inactive
6 | Cn1cnc([N+](=O)[O-])c1S(=O)(=O)c1ccc(Cl)cc1 | inconclusive: 25.1 µM [inhibitor, full curve]
7 | C=CCSc1nnc(-c2ccccc2N=Cc2c(C)[nH]n(-c3ccccc3)c2=O)c(=O)[nH]1 | inconclusive: 44.7 µM [inhibitor, full curve, poor fit]
8 | COc1ccc(N(CC(=O)Nc2cccnc2)S(=O)(=O)c2ccccc2)cc1Cl | inactive
9 | Nc1ccc2nn(-c3cc([N+](=O)[O-])ccc3O)nc2c1 | inactive
10 | Cc1ccc(C)c(NC(=S)NC2CC3CCC(C2)N3Cc2ccco2)c1 (configuration not stated) | inactive
11 | Cc1ccc(N2CC(C(=O)Nc3nnc(SCC(N)=O)s3)CC2=O)cc1C (configuration not stated) | inconclusive: 100 µM [inhibitor, single point]
12 | CN(C)C(=S)N=c1ssc(=S)n1Cc1ccco1 | inconclusive: 20 µM [inhibitor, partial curve]
13 | COCCNC(=O)C1(C)CCN(C(=O)c2cc(C)n(C(C)(C)C)n2)C1 (configuration not stated) | inactive
14 | CC(C)C(C)NC(=O)CSc1nc2scc(-c3ccco3)c2c(=O)n1-c1ccccc1 (configuration not stated) | inactive
15 | CSc1ccccc1C(=O)OCC(=O)Nc1cccnc1Cl | inconclusive: 20 µM [inhibitor, full curve, poor fit]
16 | COc1ccc(/C=N/NC(=O)c2ccc(O)cc2)cc1CN1CCCc2ccccc21 | inconclusive: 28.2 µM [inhibitor, single point]
17 | Cc1ccc(S(=O)(=O)/N=C2/NC(=O)/C(=C/c3ccc(Br)o3)S2)cc1 | inconclusive: 56.2 µM [inhibitor, partial curve]
18 | COCc1[nH]nc2c1C(c1ccsc1)C(C#N)=C(N)O2 (configuration not stated) | inactive
19 | CC(=O)c1cccc(NC(=O)c2cc(=O)c3ccccc3o2)c1 | inactive
20 | Cc1ccc(NC(=O)c2cc(-c3ccc(C)o3)nc3ccccc23)nc1 | inconclusive: 44.7 µM [inhibitor, partial curve, poor fit]
21 | O=C(O)c1ccc(S(=O)(=O)Nc2ccc(O)c(Sc3nc4ccccc4s3)c2)cc1 | inconclusive: 31.6 µM [inhibitor, single point]
22 | CCOCCn1c(=O)c2c(nc3n2CCN3c2ccc(C)cc2)n(C)c1=O | inactive
23 | CC(C(=O)Nc1ccc2c(c1)OCO2)N1CCN(C)CC1 (configuration not stated) | inconclusive: 39.8 µM [inhibitor, full curve]
24 | CC(/C=N/n1c(-c2cccnc2)n[nH]c1=S)=C\c1ccco1 | inconclusive: 39.8 µM [inhibitor, partial curve]

Row | Compound | Potency
25 | O=C(O)c1cc(NC(=O)c2ccc3c(c2)C(=O)N(Cc2ccccc2)C3=O)cc(C(=O)O)c1 | inconclusive: 70.8 µM [inhibitor, single point]
26 | COc1cc(C(=S)N2CCOCC2)ccc1OC(=O)c1ccccc1C | inactive
27 | Cc1cc(C)nc(NS(=O)(=O)c2ccc(NC(=O)c3cccs3)cc2)n1 | inconclusive: 89.1 µM [inhibitor, single point]
28 | Cn1c(=O)n(Cc2ccccc2Cl)c2ccccc21 | inactive
29 | Cc1cc(NC(=O)Nc2c[nH]c(=O)[nH]c2=O)ccc1Br | inconclusive: 70.8 µM [inhibitor, partial curve]
30 | CCC(c1nnnn1Cc1ccco1)N(Cc1cc2cc(C)cc(C)c2[nH]c1=O)CC1CCCO1 (configuration not stated) | inactive
31 | O=C1CC(c2ccco2)CC2=C1C=Nc1ccccc1N2 (configuration not stated) | inactive
32 | CCC(c1nnc(SCC(=O)Nc2ccc(C(=O)N(C)C)cc2)n1Cc1ccccc1)N(C)C (configuration not stated) | inactive
33 | C#CCOCCOCCOCCNc1nc(N2CCN(C(=O)CCCCCCCCCCNC(=O)[C@H](CCCCN)n3cc(C)nn3)CC2)nc(N2CCN(C(=O)CCCCCCCCCCNC(=O)[C@H](CCCN=C(N)N)n3cc(C[C@@H](C)CC)nn3)CC2)n1 | active: 44.7 µM
34 | OCCN1CCN(CC(O)COCCOc2ccc(Br)cc2)CC1 (configuration not stated) | inactive
35 | COc1ccc(CC(=O)N/N=C\c2cc(Br)c(O)c(Br)c2)cc1 | inactive
36 | Nc1ccc(-c2nc3ccc([N+](=O)[O-])cc3[nH]2)cc1 | inconclusive: 50.1 µM [inhibitor, partial curve]
37 | C/C=C/c1ccc(OCC(=O)OCc2csc(Nc3ccc(C)cc3)n2)c(OC)c1 | inconclusive: 35.5 µM [inhibitor, single point]
38 | Cc1ccc(NC(=O)CNCc2ccccc2)cc1Br | inconclusive: 89.1 µM [inhibitor, single point]
39 | COc1ccc(C(=O)/C=C/Nc2ccc(S(=O)(=O)Nc3nc(C)cc(C)n3)cc2)cc1OC | inconclusive: 12.6 µM [inhibitor, single point]
40 | COc1cc(OC)c(OC)cc1/C=C1\Oc2cc(OS(C)(=O)=O)ccc2C1=O | inconclusive: 79.4 µM [inhibitor, partial curve]
41 | CNC(=O)/C(=C\c1ccc2c(c1)OCO2)NC(=O)c1ccc(Br)cc1 | inconclusive: 31.6 µM [inhibitor, single point]
42 | Cn1c(-c2c(N)n(CCc3ccccc3)c3nc4ccccc4nc23)nc2ccccc21 | inactive
43 | O=c1[nH]c2ccccc2c(O)c1O | inactive
44 | CCOC(=O)c1sc(NC(=O)CSc2nnc(-c3ccco3)n2CC)c(C(=O)OCC)c1C | inactive
45 | CN(C)c1cccc2c1C(=O)c1ccccc1C2=O | inactive
46 | C#CCOCCOCCOCCNc1nc(N2CCN(C(=O)CCCCCCCCCCNC(=O)[C@H]([C@@H](C)CC)n3cc(CCCCN=C(N)N)nn3)CC2)nc(N2CCN(C(=O)CCCCCCCCCCNC(=O)[C@H](CCCCN)n3cc(C)nn3)CC2)n1 | active: 28.2 µM
47 | C=CCOc1ccc(CN(C)CC(O)COc2cccc3ccccc23)cc1 (configuration not stated) | inconclusive: 79.4 µM [inhibitor, single point]
48 | O=C(CSc1nc2ccccc2s1)Nc1cc(S(=O)(=O)N2CCOCC2)ccc1O | inconclusive: 44.7 µM [inhibitor, partial curve]

Fetched by compound from the entries so far, 5 records:
Row | Compound | Potency
32 | CCC(c1nnc(SCC(=O)Nc2ccc(C(=O)N(C)C)cc2)n1Cc1ccccc1)N(C)C (configuration not stated) | inactive
29 | Cc1cc(NC(=O)Nc2c[nH]c(=O)[nH]c2=O)ccc1Br | inconclusive: 70.8 µM [inhibitor, partial curve]
40 | COc1cc(OC)c(OC)cc1/C=C1\Oc2cc(OS(C)(=O)=O)ccc2C1=O | inconclusive: 79.4 µM [inhibitor, partial curve]
45 | CN(C)c1cccc2c1C(=O)c1ccccc1C2=O | inactive
27 | Cc1cc(C)nc(NS(=O)(=O)c2ccc(NC(=O)c3cccs3)cc2)n1 | inconclusive: 89.1 µM [inhibitor, single point]

(cont.)

Row | Compound | Potency
49 | Cc1ccsc1/C=N/N1CCN(Cc2ccccc2)CC1 | inactive
50 | Cc1noc(C)c1NC(=O)N(C)C[C@H]1OCc2cnnn2CCCC(=O)N([C@@H](C)CO)C[C@H]1C | inactive
51 | CCCC[C@@H]1CCCO[C@@](C(=O)NCc2cc(C)n(C)n2)(C(F)(F)F)C1 | inactive
52 | O=C(O)c1ccccc1NC(c1ccccc1)c1ccc2cccnc2c1O (configuration not stated) | active: 14.1 µM
53 | O=C(Nc1nnc(-c2ccccc2)o1)c1cc(Cl)sc1Cl | inconclusive: 28.2 µM [inhibitor, single point]
54 | CCCC(=O)N1CCN(c2nc3c(OC)ccc(Cl)c3s2)CC1 | inactive
55 | O=C(O)c1ccccc1/C=N/n1c(C2CCCCC2)n[nH]c1=S | inactive
56 | CCCN(CCC)C(=O)CSc1nc2ccsc2c(=O)n1NC(=O)c1ccccc1 | inconclusive: 14.1 µM [inhibitor, full curve, poor fit]
57 | O=C(Nc1ccc(N2CCOCC2)cc1)c1cc(-n2cnnc2)ccc1Cl | inconclusive: 79.4 µM [inhibitor, single point]
58 | FC(F)(F)c1nnc(-c2ccccc2)nc1Sc1ccc(Cl)cc1 | inactive
59 | Oc1ccc2c(c1)OCC1(O)Cc3cc(O)c(O)cc3C21 (configuration not stated) | active: 8.91 µM
60 | C#CCOCCOCCOCCNc1nc(N2CCN(C(=O)CCCCCCCCCCNC(=O)[C@H]([C@@H](C)CC)n3cc(CCCCN=C(N)N)nn3)CC2)nc(N2CCN(C(=O)CCCCCCCCCCNC(=O)[C@H](CO)n3cc(CCCSC)nn3)CC2)n1 | active: 25.1 µM
61 | O=C(O)CN1C(=O)/C(=C\C(Br)=C\c2ccccc2)SC1=S | inconclusive: 3.77 µM [inhibitor, partial curve]
62 | Nc1sc2c(c1C(=O)c1ccccc1)CCCC2 | inactive
63 | Oc1ccc(-c2csc(Nc3ncccn3)n2)cc1O | inconclusive: 25.1 µM [inhibitor, single point]
64 | OCCN(Cc1ccccc1)Cc1cccc(Cl)c1Cl | inactive
65 | CCn1c(/C=C/c2ccc(O)c(O)c2)nc2ccccc2c1=O | inconclusive: 44.7 µM [inhibitor, partial curve]
66 | C=CCSC1=Nc2sccc2C2=NC(=O)CN12 | inconclusive: 79.4 µM [inhibitor, single point]
67 | COc1cccc(CNC(=O)C(=O)NCCC2CCCCN2S(=O)(=O)c2ccc(C)cc2)c1 (configuration not stated) | inconclusive: 17.8 µM [inhibitor, full curve, poor fit]
68 | CCCN1C(=O)/C(=C\C=C2\N(CC)c3ccccc3C2(C)C)SC1=S | active: 4.23 µM
69 | O=C(CCc1nc2ccccc2c(=O)[nH]1)NCCN1C(=O)S/C(=C\c2ccc(OC(F)F)cc2)C1=O | inconclusive: 14.1 µM [inhibitor, single point]
70 | O=C(Nc1ccccc1)N1CCC(c2nc(-c3ccc(S(=O)(=O)N4CCOCC4)cc3)no2)CC1 | inactive
71 | O=c1[nH]c2ccc(S(=O)(=O)N3CCN(c4ccccc4)CC3)cc2[nH]c1=O | inconclusive: 89.1 µM [inhibitor, single point]
72 | CC[n+]1ccc(/C=C/c2ccc(N(C)C)cc2)c2ccccc21 | active: 44.7 µM
